At least one compound was matched to its structure with a doubt left. Some of these results come from one statement about several compounds together.
Assays:
[1] = tested on: MiaPaCa-GR and MiaPaCa-GTR Gem resistant cell lines; assay: ARDA-gemcitabine combination, MTT and Chou-Talalay combination index (CalcuSyn); assay type: cell-based, human; conditions: combined with Gemcitabine at respective GI50 values; CI<1 synergy
PDAC patients = conditions: 250 mg three times daily, reference (23); cited from earlier work

For `C[C@]12CC[C@H](O)CC1=CC[C@@H]1[C@@H]2CC[C@]2(C)C(n3cnc4ccccc43)=CC[C@@H]12` [Galeterone, galeterone], the “combination index (CI) with gemcitabine” value [1] was 0.03-0.4.
In the case of `C[C@]12CC[C@H](n3ccnc3)CC1=CC[C@@H]1[C@@H]2CC[C@]2(C)C(n3cnc4ccccc43)=CC[C@@H]12` [VNPP433-3β], the “combination index (CI) with gemcitabine” value [1] is reported as 0.03-0.4.
In the case of `CC(C)C(=O)Nc1ccc([N+](=O)[O-])c(C(F)(F)F)c1` [flutamide], the “survival duration over control patients” value (PDAC patients) is listed as “doubled survival duration”.
